Assay [1] deals with T1, mouse Elongator complex subunit 6 with the wobbly mutation (mElp6L126Q) (mouse) (UniProt Q8BK75).
T1 sequence: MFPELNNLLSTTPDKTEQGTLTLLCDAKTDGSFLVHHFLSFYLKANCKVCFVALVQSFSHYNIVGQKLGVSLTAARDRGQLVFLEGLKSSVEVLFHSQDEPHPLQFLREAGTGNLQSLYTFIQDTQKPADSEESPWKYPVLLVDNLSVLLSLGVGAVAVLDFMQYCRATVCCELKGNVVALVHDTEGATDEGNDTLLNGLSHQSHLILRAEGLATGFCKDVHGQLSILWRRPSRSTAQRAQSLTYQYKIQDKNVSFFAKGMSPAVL
Nature of the assay: co-purification (NiNTA affinity, then SEC); subunits co-expressed in E. coli; truncated complexes purified as complexes and then used for Thermofluor; both purified. On the technique in general: Differential scanning fluorimetry follows unfolding on heating by fluorescence.

Assay [2] concerns the target T2, mouse Elongator complex subunit 6 (mElp6), wild type (mouse) (UniProt Q8BK75).
T2 sequence: T1 sequence with Q126L
The assay is described as above.

Assay [3] addresses T3, yeast Elongator complex subunit 6 (yElp6) (S. cerevisiae) (UniProt Q04868).
T3 sequence: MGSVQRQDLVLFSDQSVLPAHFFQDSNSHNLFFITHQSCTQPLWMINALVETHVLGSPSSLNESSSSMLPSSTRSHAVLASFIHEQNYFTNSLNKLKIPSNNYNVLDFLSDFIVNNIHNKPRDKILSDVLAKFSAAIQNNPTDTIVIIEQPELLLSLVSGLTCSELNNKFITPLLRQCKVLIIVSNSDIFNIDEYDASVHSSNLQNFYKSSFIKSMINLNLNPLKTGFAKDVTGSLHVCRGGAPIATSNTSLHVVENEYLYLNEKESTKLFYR
Nature of the assay: SEC; subunits co-expressed in E. coli, complex purified by NiNTA, then size-exclusion chromatography (Superdex 200) in 20 mM HEPES pH 7.5, 150 mM NaCl, 5 mM DTT; fractions analysed by SDS-PAGE; both purified.

The target of assay [4] is T4, yeast Elongator complex subunit 5 (yElp5) (S. cerevisiae) (UniProt P38874).
T4 sequence: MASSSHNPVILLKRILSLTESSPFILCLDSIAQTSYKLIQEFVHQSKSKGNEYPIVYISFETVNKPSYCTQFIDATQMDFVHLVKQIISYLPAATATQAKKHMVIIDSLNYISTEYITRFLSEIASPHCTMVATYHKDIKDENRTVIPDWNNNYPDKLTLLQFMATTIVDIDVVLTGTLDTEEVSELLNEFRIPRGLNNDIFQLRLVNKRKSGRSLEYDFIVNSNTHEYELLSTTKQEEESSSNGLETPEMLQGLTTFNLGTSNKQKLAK
Described as above.

Assay [5] has as its target T1, mouse Elongator complex subunit 6 with the wobbly mutation (mElp6L126Q) (mouse). The description is as above.
In assay [6] the target is T2, mouse Elongator complex subunit 6 (mElp6), wild type (mouse). Described as above.
The target in assay [7] is T5, mouse Elongator complex subunit 5 (mElp5) (mouse) (UniProt Q99L85).
T5 sequence: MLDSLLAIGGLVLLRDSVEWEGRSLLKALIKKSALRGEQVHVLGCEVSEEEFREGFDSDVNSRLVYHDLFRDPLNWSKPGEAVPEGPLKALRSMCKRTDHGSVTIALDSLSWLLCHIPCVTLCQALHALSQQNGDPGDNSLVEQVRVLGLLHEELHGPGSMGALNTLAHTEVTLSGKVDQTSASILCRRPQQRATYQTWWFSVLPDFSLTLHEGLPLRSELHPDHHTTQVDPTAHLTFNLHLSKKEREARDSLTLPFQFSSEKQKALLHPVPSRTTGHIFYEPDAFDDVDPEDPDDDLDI
Nature of the assay: co-purification (NiNTA affinity, then SEC); subunits co-expressed in E. coli; truncated complexes purified as complexes and then used for Thermofluor; both purified.

Assay [8] has as its target T6, mouse Elp5 residues 1-250 (mElp5_(1-250)) (mouse) (UniProt Q99L85).
T6 sequence: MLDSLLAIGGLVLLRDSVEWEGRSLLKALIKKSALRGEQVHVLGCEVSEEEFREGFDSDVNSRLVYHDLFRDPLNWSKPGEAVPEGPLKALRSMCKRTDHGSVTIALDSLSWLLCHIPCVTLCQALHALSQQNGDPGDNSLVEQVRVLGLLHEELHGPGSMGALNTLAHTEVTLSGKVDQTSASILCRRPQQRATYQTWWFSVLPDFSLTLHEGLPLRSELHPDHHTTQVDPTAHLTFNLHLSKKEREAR
The description is as above.

In assay [9] the target is T5, mouse Elongator complex subunit 5 (mElp5) (mouse). Nature of the assay: SEC; subunits co-expressed in E. coli, complex purified by NiNTA, then size-exclusion chromatography (Superdex 200) in 20 mM HEPES pH 7.5, 150 mM NaCl, 5 mM DTT; fractions analysed by SDS-PAGE; both purified.

Positions count from the first letter of the chain named. No constants are given. Whether binding was seen depends on the method and setting. Some results given as binding are weak or reduced against the parent protein; the word gives no strength.

B1: mouse Elp5 residues 1-250 (mElp5_(1-250)) (domain or fragment, UniProt Q99L85 1-250)
chain: T6 sequence
In the case of B1, the binding result in assay [1] and in assay [2] was “binds” throughout.

B2: yeast Elongator complex subunit 4 (yElp4) (protein, UniProt Q02884 1-456)
chain: MSFRKRGEILNDRGSGLRGPLLRGPPRTSSTPLRTGNRRAPGNVPLSDTTARLKKLNIADESKTKMGLDSSHVGVRPSPATSQPTTSTGSADLDSILGHMGLPLGNSVLVEEQSTTEFHSILGKLFAAQGIVHNRISDSSADKTRNGDTHVIVLSLNQMFAKELPGIYKGSRKQMKKNLISEEESKVTVQNLNETQRSTPSRYKDLKIAWKYKLADEKRLGSPDRDDIQQNSEYKDYNHQFDITTRLMPAPIASELTFIAPTQPVSTILSQIEQTIKRNDKKLIRIVIPSLLHPAMYPPKMFESSEIIGLMHGVRSLVKKYYERVVLFASISIDIITPPLLVLLRNMFDSVINLEPFNQEMTEFLERVYKSQPGKIQHGLVHILKLPVFTDRGEMRVLKSEWAFKNGRKKFEIEQWGIPVDDAEGSAASEQSHSHSHSDEISHNIPAKKTKISLDY
Take B2: the binding result in [3] and in assay [4] was “binds” each time.

B3: yeast Elp5 residues 1-270 (yElp5_(1-270)) (domain or fragment, S. cerevisiae, UniProt P38874 1-270, looked up)
chain: T4 sequence
notes: Elp5, yeast, residues 1-270; source: purified complex
As to B3, the binding entry in [3] is “binds”.

B4: mouse Elongator complex subunit 5 (mElp5) (protein, UniProt Q99L85 1-300)
chain: T5 sequence
With B4, the binding entry in [1], in [2], in [5] and in assay [6] was “binds” throughout.

B5: mouse Elp4 residues 49-389 (mElp4_(49-389)) (domain or fragment, UniProt Q9ER73 49-389)
chain: AGTRPSVRNGQLLVSTGLPALDQLLGGGLAVGTLLLIEEDKYNIYSPLLFKYFMAEGIINGHTLLVASAKENPAKILQELPAPLLDDNSKKELEDVHSAKTPEPNVNMKIAWRYQLQPKMEVGPVSSSRFGHYYDLSKRIPWELLQSSKWHGFFLPEHISPDLKGESCFLSCGYMRLLEFIQKSVYAEGFDGANPQKKQKNILRIGIQNLGSPLWGDDICCKENCDNNHRLTKFLYILRGLLRSSLSACIITMPAHLVQNKSITTRVRNLSDTVVGLESFIGSERETNPLYKDYHGLIHIRKIPRLNNLTCDESDVKDLAFKLKRKLFTIERLHLPPDLSD
On to B5, for which the binding entry in assay [7], in [8], in assay [1] and in assay [2] was “binds” throughout.

B6: mouse Elongator complex subunit 4 (mElp4) (protein, UniProt Q9ER73 1-422)
chain: MAAADTCGAGTLSSRSVASEAGQGGTSSFQRKGKASGGPGGGPRLLSIAGTRPSVRNGQLLVSTGLPALDQLLGGGLAVGTLLLIEEDKYNIYSPLLFKYFMAEGIINGHTLLVASAKENPAKILQELPAPLLDDNSKKELEDVHSAKTPEPNVNMKIAWRYQLQPKMEVGPVSSSRFGHYYDLSKRIPWELLQSSKWHGFFLPEHISPDLKGESCFLSCGYMRLLEFIQKSVYAEGFDGANPQKKQKNILRIGIQNLGSPLWGDDICCKENCDNNHRLTKFLYILRGLLRSSLSACIITMPAHLVQNKSITTRVRNLSDTVVGLESFIGSERETNPLYKDYHGLIHIRKIPRLNNLTCDESDVKDLAFKLKRKLFTIERLHLPPDLSDTVGRSSKQDLAASTARLGAGCSSMAEGKKHLDF
With B6, the binding result in assay [9], in [5] and in assay [6] was “binds” in each case.

For the origin of these results see paper PMC6086839, “Elongator mutation in mice induces neurodegeneration and ataxia-like behavior” (Nature Communications, 2018).
